Consider 1 substance from PMC9257412.

Chains of the proteins cited; added tags and fusions are not shown. Lines headed by an entry give the natural chain unless they say otherwise; changes in a name come on top.
UniProt Q583Z0: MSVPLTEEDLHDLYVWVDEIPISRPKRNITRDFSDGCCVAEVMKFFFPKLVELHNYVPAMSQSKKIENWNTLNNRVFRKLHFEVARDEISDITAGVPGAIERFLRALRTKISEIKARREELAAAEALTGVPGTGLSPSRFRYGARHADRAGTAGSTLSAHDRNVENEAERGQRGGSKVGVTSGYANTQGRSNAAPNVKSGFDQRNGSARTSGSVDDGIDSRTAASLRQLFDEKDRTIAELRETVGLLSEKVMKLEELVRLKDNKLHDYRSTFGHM

This assay addresses GST-TbSpef1 (T. brucei) (UniProt Q583Z0). In words: pull-down; GST-TbSpef1 on glutathione sepharose 4B beads as bait; T. brucei lysate with NHL1-3HA as prey; 25 mM Tris-HCl pH 7.6, 150 mM NaCl, 1 mM DTT, 1% NP-40; 1 h at 4 °C; anti-HA Western blot; only the target purified. A general note: A western blot detects proteins with antibodies after separation by electrophoresis.

These are yes or no findings as the source states them, for the method shown. Binding seen in cells or lysates may run through a third protein. Binding calls can cover weak binding; strength is not graded here.

Take NHL1-3HA (from UniProt Q38EV3): the binding entry is on record as “binds”.
